Experimental data: patent publication US20050084492A1, “Assay method to monitor the response of anti-cytokine therapy” (priority 2003, published 2005)
Some of these results come from one statement about several compounds together.

Test system: A498 cells
Assay: Induction of SAA production in A498 renal carcinoma cells by cytokines, SAA ELISA of culture supernatant
Type: cell-based
Settings: human renal tumor A498 cells stimulated overnight with the cytokine(s); SAA in culture supernatant by ELISA (FIG. 2A)
From the text: A-498, a renal carcinoma cell line was purchased from ATCC (Rockville, Md.). Cells were maintained according to ATCC instructions in log phase of cell growth in DMEM/10% heat-inactivated FBS, 1% L-Gut, 1% NEAA and 1% NaPyr. CNTO 328, an anti-human IL-6 antibody developed at Centocor and disclosed in U.S. patent application Ser. No. 10/280,716, hereby incorporated by reference into the present application, was used at several concentrations in the assay. F 105, human anti-gp 120 IgGl, also developed at Centocor, was used as a negative control antibody. Anti-SAA monoclonal antibody (clone REU-86.2, Research Diagnostics, Inc.) was used for SAA immunostaining.
A498 cells were cultured for 24 hrs in 96-well flat bottom tissue culture plates at a concentration of 6×10^4 cells/100 ul in DMEM complete media at 37 °C./5% CO2. Cells were washed with PBS then starved for 1 hr in 100 ul of serum free DMEM media at room temp. A combination of IL-6 (100 ng/ml), sIL-6R (200 ng /ml) and IL-1b (1 ng/ml) mixture was incubated with serial dilutions of CNTO 328 or F105 control antibody for 30 minutes at room temperature. 100 ul of the mixture was added to the cells and incubated at 37 °C./5% CO2 overnight.
The cell culture supernatant was assayed immediately for hSAA production using Biosource human SAA kit (Camrillo, Calif.) following manufacturer's instructions.

Substance | SAA produced in culture
sIL-6R: soluble IL-6 receptor used to stimulate A498 cells | < 9 ng/mL
IL-6: cytokine used to stimulate A498 cells | < 9 ng/mL
